One may read the IC50 as the concentration needed to halve the response being measured.

Sequences of proteins named here, by UniProt entry; tags and fusion partners are left off. Residues count along the entry.
UniProt P52333, 811-1103 limits assumed: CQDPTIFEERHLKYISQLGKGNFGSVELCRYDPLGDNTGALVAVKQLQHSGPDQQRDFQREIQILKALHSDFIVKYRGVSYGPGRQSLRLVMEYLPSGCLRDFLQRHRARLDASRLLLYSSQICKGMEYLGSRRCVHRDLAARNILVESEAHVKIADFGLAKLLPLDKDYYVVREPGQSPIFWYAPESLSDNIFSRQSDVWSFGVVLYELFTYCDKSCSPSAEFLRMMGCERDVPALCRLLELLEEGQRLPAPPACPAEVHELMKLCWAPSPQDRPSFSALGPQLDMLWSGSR

The match of structure and compound is tentative. A value given as a limit tells only on which side of the number the result lay.

For one compound, IC50 results are on record in patent USRE47221E1, “Tricyclic compounds” (AbbVie Inc., priority 2009, dated 2019).

The target of the test is Jak3 (Homo sapiens, UniProt P52333). Put plainly: Jak3 enzyme data for selected compounds. The class given is biochemical. As to conditions: read-out: JAK3 enzyme IC50.

Turning to `C[C@@H]1C[C@@H](Nc2ccccc2)C[C@@H]1c1ncc2cnc3[nH]ccc3n12`, the concentration for half-maximal inhibition (IC50) was < 100 nM.
